Literature values in patent US9763453B2, “Antimicrobial coating for inhibition of bacterial adhesion and biofilm formation” (Bacterin International, Inc., priority 2004, dated 2017).
Some of these results come from one statement about several compounds together. At least one compound was matched to its structure with a doubt left.

Details: aqueous solutions

[Cl][Ag] [silver chloride]
Ksp: 10^−8 to 10^−9
